Test results as given in PubChem BioAssay AID228 (DTP/NCI, 2004).
The list is a part of this screen's results and no random one: its compounds were picked by chemical class. Other doses and runs of a compound may be missing. T/C is the treated group as % of the vehicle group. Some T/C values are marked as having no survivor count here; that says nothing about deaths at the dose. Schedule codes are those of the source, read here as Q, the interval in days (D) or hours (H), X, the number of doses. Some entries hold several experiments; the values are given in rising order.

Test system: BDF1 mice, Friend leukemia sc, tumor weight T/C
Experiment: NCI In Vivo Anticancer Drug Screen. Data for tumor model Friend Virus Leukemia (Solid) (subcutaneous) in B6D2F1 (BDF1) mice
Conditions: T/C endpoint: mean tumor weight, schedule: Q01DX011 (ip), evaluation day not shown, higher T/C = larger tumour
Protocol: The antitumor activity of compounds was measured in mice bearing transplantable tumors. Survival or tumor size were measured and the results are expressed as the measurement made in the treated group (T) divided by the measurement made in the vehicle treated control group (C). The tumor model used in this assay is Friend Virus Leukemia (Solid) (subcutaneous) in B6D2F1 (BDF1) mice

[1] = dose: 12.5 mg/kg/injection, vehicle: carboxymethylcellulose (CMC)
[2] = dose: 25.0 mg/kg/injection, vehicle: carboxymethylcellulose (CMC)
[3] = dose: 1.0 mg/kg/injection, vehicle: carboxymethylcellulose (CMC)
[4] = dose: 3.0 mg/kg/injection, vehicle: carboxymethylcellulose (CMC)
[5] = dose: 2.5 mg/kg/injection, vehicle: carboxymethylcellulose (CMC)
[6] = dose: 5.0 mg/kg/injection, vehicle: carboxymethylcellulose (CMC)
[7] = dose: 10.0 mg/kg/injection, vehicle: carboxymethylcellulose (CMC)
[8] = dose: 2.0 mg/kg/injection, vehicle: carboxymethylcellulose (CMC)

With `ClCCN(CCCl)Cc1nc2ccc(Cl)cc2[nH]1` the T/C (dose: 6.25 mg/kg/injection, vehicle: carboxymethylcellulose (CMC)) was 147 % of control [survivor count not shown], the T/C [1] was 78 % of control [survivor count not shown] and the T/C [2] was 55 % of control [survivor count not shown].

`ClCCN(CCCl)Cc1nc2cc(Cl)c(Cl)cc2[nH]1` was tested, and the T/C [1] was 116 % of control [survivor count not shown], the T/C [2] was 73 % of control [survivor count not shown] and the T/C (dose: 50.0 mg/kg/injection, vehicle: carboxymethylcellulose (CMC)) was 63 [survivor count not shown] and 101 % of control [survivor count not shown]. For the same compound, the T/C (dose: 100.0 mg/kg/injection, vehicle: carboxymethylcellulose (CMC)) was 56 % of control [survivor count not shown].

For `O=C(O)C(=O)Cc1ccc(N(CCCl)CCCl)cc1`, the T/C [3] was 95 % of control [survivor count not shown], the T/C [4] was 90 % of control [survivor count not shown] and the T/C (dose: 6.0 mg/kg/injection, vehicle: carboxymethylcellulose (CMC)) was 52 [survivor count not shown] and 60 % of control [survivor count not shown]. For the same compound, the T/C (dose: 12.0 mg/kg/injection, vehicle: carboxymethylcellulose (CMC)) was 39 [survivor count not shown] and 69 % of control [survivor count not shown] and the T/C [2] was 26 % of control [survivor count not shown].

`ClCCN(CCCl)Cc1nc2ccccc2[nH]1` was tested, and the T/C (dose: 1.87 mg/kg/injection, vehicle: saline) was 131 % of control [survivor count not shown], the T/C (dose: 2.5 mg/kg/injection, vehicle: saline) was 108 % of control [survivor count not shown] and the T/C (dose: 3.75 mg/kg/injection, vehicle: saline) was 86 % of control [survivor count not shown]. For the same compound, the T/C (dose: 5.0 mg/kg/injection, vehicle: saline) was 83 % of control [survivor count not shown] and the T/C (dose: 7.5 mg/kg/injection, vehicle: carboxymethylcellulose (CMC)) was 30 % of control [survivor count not shown].

In the case of `Oc1ccc(Cl)cc1CN(CCCl)CCCl`, the T/C [5] is reported as 106 % of control [survivor count not shown], the T/C [6] is reported as 82 % of control [survivor count not shown] and the T/C [7] is reported as 60 [survivor count not shown] and 74 % of control [survivor count not shown]. For the same compound, the T/C (dose: 20.0 mg/kg/injection, vehicle: carboxymethylcellulose (CMC)) was 55 % of control [survivor count not shown].

For `NC(Cc1cccc(N(CCCl)CCCl)c1)C(=O)O` (centres undefined), the T/C [8] was 55 % of control [survivor count not shown], the T/C [5] was 48 % of control [survivor count not shown] and the T/C [4] was 17 % of control [survivor count not shown].

With `CC(C(=O)O)N(CCCl)CCCl` (centres undefined) the T/C (dose: 0.5 mg/kg/injection, vehicle: carboxymethylcellulose (CMC)) was 108 % of control [survivor count not shown], the T/C [3] was 125 % of control [survivor count not shown] and the T/C [8] was 131 % of control [survivor count not shown]. For the same compound, the T/C (dose: 4.2 mg/kg/injection, vehicle: carboxymethylcellulose (CMC)) was 107 % of control [survivor count not shown].

In the case of `ClCCNCCCl`, the T/C (dose: 25.0 mg/kg/injection, vehicle: saline) is reported as 201 % of control [survivor count not shown], the T/C (dose: 37.5 mg/kg/injection, vehicle: saline) is reported as 132 % of control [survivor count not shown] and the T/C (dose: 50.0 mg/kg/injection, vehicle: saline) is reported as 13 [survivor count not shown] and 55 % of control [survivor count not shown]. The T/C (dose: 75.0 mg/kg/injection, vehicle: saline) was 76 % of control [survivor count not shown].

In the case of `O=C(O)CN(CCCl)CCCl`, the T/C (dose: 0.9 mg/kg/injection, vehicle: saline) is reported as 92 % of control [survivor count not shown], the T/C (dose: 1.25 mg/kg/injection, vehicle: carboxymethylcellulose (CMC)) is reported as 87 % of control [survivor count not shown] and the T/C (dose: 1.75 mg/kg/injection, vehicle: saline) is reported as 127 % of control [survivor count not shown]. The T/C [5] was 77 % of control [survivor count not shown], the T/C (dose: 3.5 mg/kg/injection, vehicle: saline) was 100 % of control [survivor count not shown] and the T/C [6] was 68 % of control [survivor count not shown]. For the same compound, the T/C (dose: 7.0 mg/kg/injection, vehicle: saline) was 58 % of control [survivor count not shown] and the T/C [7] was 60 % of control [survivor count not shown].

For `Oc1c(SCCCl)c(SCCCl)c(O)c(SCCCl)c1SCCCl`, the T/C (dose: 63.0 mg/kg/injection, vehicle: carboxymethylcellulose (CMC)) was 101 % of control [survivor count not shown], the T/C (dose: 125.0 mg/kg/injection, vehicle: carboxymethylcellulose (CMC)) was 73 % of control [survivor count not shown] and the T/C (dose: 250.0 mg/kg/injection, vehicle: carboxymethylcellulose (CMC)) was 97 % of control [survivor count not shown]. The T/C (dose: 500.0 mg/kg/injection, vehicle: carboxymethylcellulose (CMC)) was 83 % of control [survivor count not shown].
